In all, about 52,000 sequences went through this assay and about 210 (0.4%) were called active.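 The calls were made as follows: active = gene whose silencing raises cell survival under the drug, median off-target-corrected z-score across its silencing RNAs 2 or more; inactive = the rest.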 The list shows a part of the results.
Test: Resistance to Poly (ADP-Ribose) Polymerase inhibitor: Gene Identification via Genome-wide siRNA Screen
Conditions: mouse BRCA2 R2336H ES cells, olaparib, CellTiter-Glo viability; hits give high values
Method in brief: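 Genome-wide siRNA screen (3 siRNAs/gene, 20 nM) in mouse ES cells carrying hypomorphic BRCA2 R2336H; olaparib 500 nM added 48 h post-transfection, CellTiter-Glo viability 72 h later. Normalized to plate-median negative control; MAD z-scores, gene median, seed-adjusted.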
In the case of “GGCCAAAUGGAAUAAGAAGTT against 5430401O09Rik”, the z-score is reported as inactive: -1.42.
With “GGUUCUGGUUGAUAGAGAUTT against 4931428L18Rik” the z-score was inactive: -0.289.
With “GGAUAGAUGGUACACGUCUTT against 2410004A20Rik” the z-score was inactive: -1.24.
For GGCAGAAAGAAAUUGAGAATT against Trim42, the z-score was inactive: -0.241.
In the case of CGGGUGCCGGAAAGUUUAUTT against Klf7, the z-score is reported as inactive: 0.466.
With “GCUAUUGUAGUGGUUACUGTT against D430014M15” the z-score was inactive: -1.39.
For CCUAAAUUAGUAGGACGGUTT against Cdkn1a, the z-score was inactive: -0.742.
With GGAACCUGUACAGAUAAAGTT against Pam the z-score was inactive: -0.852.
For CCAUAUUUCAGAUCAGACUTT against Zfp68, the z-score was inactive: 1.33.
For GGAGUCGUGUAUUUUGCUGTT against B3gat3, the z-score was inactive: 0.537.
In the case of GCAUUGUCAGUCCUACGUGTT against 9.83E+24, the z-score is reported as inactive: 1.38.
In the case of GAUAAUAUCUUUGUCUGCUTT against Olfr461, the z-score is reported as inactive: 0.125.
In the case of GCUGCGUCCUAUGAGUUUATT against Drg2, the z-score is reported as inactive: 2.29.
For “GCUACCAUCUGCUAAUACATT against 2610207I05Rik”, the z-score was inactive: -1.41.
For GCUCAUGAUAUUACCUUCGTT against Olfr601, the z-score was inactive: -0.255.
In the case of GCAGAUUUUCCUUGUAGAATT against Smad2, the z-score is reported as inactive: 0.77.
With “CGAAUAUGGGAUCAAGAAATT against 4933425L06Rik” the z-score was inactive: 2.74.
With GCUUCCUCAAGCGCAUGUATT against Cox10 the z-score was inactive: 1.58.
In the case of “CGAUGCAUUCAUUGUCUAUTT against A830073O21Rik”, the z-score is reported as inactive: -0.527.
In the case of GGAAAAAGAGCAAAUUACUTT against Kif23, the z-score is reported as inactive: 0.545.
In the case of GGCGAGACGACACAUUUUCTT against Cdc16, the z-score is reported as inactive: -3.14.
With CCUGGUAACCUGCUAAAAGTT against LOC331392 the z-score was inactive: 2.26.
With GGUGGAGAUGGAAAACAUGTT against Myoz1 the z-score was inactive: -0.319.
In the case of GGACCAGGAUAGGACCAAUTT against Avpr2, the z-score is reported as inactive: 0.604.
In the case of GGCAGCUUAGCUACUAUUCTT against Zfyve28, the z-score is reported as inactive: -2.63.
In the case of “GGUACACUUUGAAGACAAUTT against C230095G01Rik”, the z-score is reported as inactive: -1.88.
For GGUAGCAGUAGGAUACUUCTT against Fshprh1, the z-score was inactive: -2.62.
In the case of GCUCGUAAUCUUUAUUGUUTT against Olfr874, the z-score is reported as inactive: 1.7.
For CCUAAGCCCAAGAUCAUCUTT against Mybph, the z-score was inactive: -1.07.
In the case of GGUCAACCUCAUGUUACGATT against Card11, the z-score is reported as inactive: 2.8.
For GCCUUCAUGGGAUUUGUCUTT against Opn1sw, the z-score was inactive: -0.763.
In the case of GGGAUUUCUUACCCUGUUUTT against Prr7, the z-score is reported as inactive: -0.454.
With CGCCUGUGUUUCGUACGUUTT against Mafg the z-score was inactive: 0.00746.
With CCACAUCUAGGCAAGGAACTT against Si the z-score was inactive: 0.201.
For “CGAUCACACUCGAAAUCACTT against D10Bwg0940e”, the z-score was inactive: -0.59.
In the case of CCACUAGACUUCAAUGACUTT against Zfhx1b, the z-score is reported as inactive: 1.17.
In the case of “CCGAUACCGGGUAUUUACCTT against 2610103M17Rik”, the z-score is reported as inactive: -0.859.
With GACAGUAGCCUUCCUCAGGTT against Nr0b2 the z-score was inactive: -0.139.
With GGUGUUGGAGACCAUGGAUTT against Clcn6 the z-score was inactive: -0.602.
For “CGCAUAUAUGUGUGUCGCCTT against 6330530A05Rik”, the z-score was inactive: 0.111.
In the case of GGGCAUUUCAUACAACUCATT against Hsn2, the z-score is reported as inactive: 0.421.
With GGCGUACGUAGACAAGUACTT against Sfrs2ip the z-score was inactive: -1.7.
For “CGAGGGUCCUCGAAGACUATT against 3300002I08Rik”, the z-score was inactive: -1.64.
In the case of CCUACAUCCCUACCAUAGATT against Diras1, the z-score is reported as inactive: 0.84.
With “GGUGGUUUUGCUUUCUGUCTT against 6332401O19Rik” the z-score was inactive: 0.765.
For GGUGGUCUACUUAGGUUUATT against Sc5d, the z-score was inactive: 0.431.
In the case of GGCUAAGUAGAACUUGUUATT against Pdcl2, the z-score is reported as inactive: 1.5.
For “GGAAAACUACUAAAAAGUCTT against 4932415D10Rik”, the z-score was inactive: -0.932.
For “GCAUCGCAUUUAAAUAGAATT against 4833408A19Rik”, the z-score was inactive: 0.307.
For GGAGAAUGAAAGUCAAGUUTT against Smn1, the z-score was inactive: -1.58.
For GCUAGACUCAAUCAAGCAGTT against Papln, the z-score was inactive: -1.4.
In the case of GCUUAAGUGGCAACCUAGATT against Zfp93, the z-score is reported as inactive: -0.876.
For GGAAAUACCCACCUUAUACTT against Efhc2, the z-score was inactive: -0.277.
With GGAGAAGAAGUGCUUCCCUTT against Gls2 the z-score was inactive: -0.676.
In the case of “GGAUGAAGAAGAGAUCAACTT against 2310057H16Rik”, the z-score is reported as inactive: 0.83.
In the case of “GCUCGAUUUUAAGCAUAUGTT against E130307J07Rik”, the z-score is reported as inactive: 0.375.
With “GGUAGAUGGCAUCUACUAUTT against 1110007C05Rik” the z-score was inactive: 0.125.
For GGAGAUAAUGAAGAAGGUUTT against Mgat5, the z-score was inactive: -0.377.
In the case of CGAACAACCUCAUUUCAUGTT against Atp8b1, the z-score is reported as inactive: 0.146.
For “GGCAACUCUAUAGAAGAAATT against 4732463G12Rik”, the z-score was inactive: -0.168.
With GGCUUGGUUCUGGUACCUUTT against Ddx28 the z-score was inactive: 0.911.
For GGAUUUGAGUGGUAAUGAATT against Bbp, the z-score was inactive: 2.1.
For GGCCAUCUGCUCCUUUAUUTT against Aqp11, the z-score was inactive: 0.519.
With GGAUCUUGAGAAGAAGUAUTT against Adcy6 the z-score was inactive: 0.435.
In the case of GCUAAAAACGAGAUAAGAGTT against Snx2, the z-score is reported as inactive: 0.744.
In the case of CCUUGUUCCCUUAUUGUACTT against Olfr362, the z-score is reported as inactive: -0.295.

— PubChem BioAssay AID1347423 (Functional Genomics Laboratory (NCATS/FGL), 2020)
